Our source for the ratio activity, RFP activity and AC50 values is PubChem BioAssay AID1498 (National Center for Advancing Translational Sciences (NCATS), 2009).

The other results are listed elsewhere or left out. Further columns of the screen follow, without active or inactive calls. Compounds called inactive in the main read-out are mostly missing here. The note in brackets gives the kind of curve behind each potency; many fits are weak.

The nature of this assay: Confirmation Concentration-Response Assay for Modulators of Lamin A Splicing. Conditions: HeLa lamin A splicing GFP/RFP minigene, Acumen, 48 h; for ratio activity: GFP/RFP ratio at top concentration; for ratio activity / RFP activity: at 46.1 µM; for RFP activity: RFP channel at top concentration. From the text: NCGC Assay Overview: Hutchinson-Gilford Progeria Syndrome (HGPS) is a pediatric premature aging disease caused by a spontaneous mutation in the lamin A/C (LMNA) gene. The mutation activates a cryptic splice site in the LMNA pre-mRNA which results in production of a pre-lamin A protein that cannot be processed properly. The mutant protein accumulates in the nucleus and negatively affects numerous cellular functions. Correction of the splicing defect in HGPS patient cells using a targeted oligonucleotide (exo11) leads to reversal of the cellular disease phenotypes. To identify small molecule modulators of aberrant LMNA splicing, a homogenous assay was constructed in HeLa cells that used a GFP containing minigene to report on correction of aberrant splicing in lamin A and a RFP (DsRed2) to report on cell viability, uniformity and nonspecific effects on the assay signal. This assay was adapted to laser-scanning microplate cytometry (Acumen, TTP Labtech) where miniaturization of the assay to a 1,536-well plate format was possible. Select compounds active in the primary screen (AID 1487) were chosen for confirmation based on potency, efficacy, SAR and activity in other assays in PubChem and at NCGC. References: Bowen, W. P.; Wylie, P. G. Application of Laser-Scanning Fluorescence Microplate Cytometry in High Content Screening. Assay Drug Dev Technol 2006;4:209-221. Scaffidi P, Misteli T. Reversal of the cellular phenotype in the premature aging disease Hutchinson-Gilford progeria syndrome. Nat. Med. 2005;11:440-445.
NCGC Assay Protocol Summary: Reagents/Controls: Stable clones expressing DsRed2 and lamin A-EGFP were generated by Cell and Molecular Technologies in S3 HeLa cells. HeLa cells were prepared for the assay when they were 70-90% confluent. The cells were counted and resuspended in Opti-MEM I (no phenol red; Gibco), 2% FBS, 1% penicillin/ streptomycin (Gibco) at concentration of 120 cells/uL concentration. The suspension was passed through a Falcon basket filter with pore size 40um (Beckton Dickson). Control titrations: column […] 1536-well plate contained a sixteen point titration (1:2 dilutions) in duplicate of ancitabine (Sigma: A8598) beginning at 40 uM final concentration. Column 2 contained a sixteen point titration (1:2 dilutions) of cycloheximide beginning at 1.4 mM final concentration. Column 3 contained ancitabine at 40 uM and column 4 contained was the vehicle control (0.5% DMSO final concentration). Assay Steps: 5 uL of HeLa cells were plated in Aurora LoBase black clear bottom (cyclic-olefin polymer) 1536-well plates at a final density of 600 cells/well. Controls and library compounds were added with a 1536-well pin array using the Kalypsys pin-tool. The plates were then incubated for 48 hrs in a cell-culture incubator (37 °C; 5% CO2, 98% humidity). Following incubation the plates were read on the Acumen Explorer using the 488 nm laser. Data was collected on objects between 10 and 100 um in size. Cell objects were defined by a 15 um width x 10 um depth filter. The ratio of the total object intensity in PMT1 (500-530 nm emission; GFP) over PMT3 (575-640 nm emission; RFP) was calculated for analysis. Keywords: NIH Roadmap, MLSCN, MLI, MLSMR, qHTS, NCGC, lamin A, Progeria, RNA splicing.

[1] abbreviates: measured here: GFP/RFP ratio splicing readout.
Setting [2] is: measured here: RFP viability/nonspecific counter channel.

For orientation: AC50 means the midpoint of the concentration-response curve, whichever way the signal moves. Turning to `COc1ccc(NC(=O)/C(Cl)=C(/Cl)S(=O)(=O)Cc2ccccc2)cn1`, the ratio activity came out at 100% and the RFP activity was -96.7%. For the same compound, the AC50 under setting [1] is 100 µM [falling, partial curve, poor fit]. Moreover, under setting [2], the AC50 is 3.16 µM [falling, full curve, poor fit].

As for `O=C(NO)C1CC2C=CC1C2` (stereo not given), the ratio activity is -36.8% and the RFP activity is -18.9%. In addition, the AC50 under setting [1] is 12.6 µM [falling, partial curve, poor fit].

For the compound `C/C=C\C1=CCCC1Nc1ncnc2ccc(-c3c(C)noc3C)cc12` (stereo not given), the ratio activity is -31.8% and the RFP activity was -24.9%. The AC50 under setting [1] is 11.2 µM [falling, full curve].

Take `CC(C)CCNC(=O)C(c1ccncc1)N(Cc1cccs1)C(=O)Cn1nnc(-c2ccc(F)cc2)n1` (stereo not given): the ratio activity was -64.3% and the RFP activity was -53.2%. The AC50 under setting [1] is 3.55 µM [falling, full curve]. In addition, the AC50 under setting [2] was 5.01 µM [falling, full curve, poor fit].

Consider `Cc1ccc(-c2cc(C(=O)N/N=C/c3c(C)nn(-c4ccccc4)c3C)n[nH]2)s1`, for which the ratio activity was -19% and the RFP activity was -50.7%. Under setting [1], the AC50 is 2 µM [falling, full curve, poor fit]. For the same compound, the half-maximal activity concentration (AC50) under setting [2] is 8.91 µM [falling, full curve, poor fit].

On to `Cc1cc(C)cc(N(CCC(=O)O)S(=O)(=O)c2ccc3ccccc3c2)c1`, for which the ratio activity is -17.3% and the RFP activity is 0.58%. Besides, the AC50 under setting [2] was 3.98 µM [rising, partial curve, poor fit].

With `Cc1ccsc1CNc1ncnc2ccc(-c3c(C)noc3C)cc12`, the ratio activity was -13.3% and the RFP activity is -42.1%. Moreover, under setting [1], the AC50 was 2.24 µM [falling, full curve, poor fit]. For the same compound, the AC50 under setting [2] was 35.5 µM [falling, single point].

In the case of `CCCCCOc1ccc(OC(=O)c2ccncc2)cc1`, the ratio activity is -45.2% and the RFP activity is -20.5%. Moreover, under setting [1], the AC50 is 5.01 µM [falling, full curve, poor fit].

For `CC(=O)Nc1ccc(CNc2ncnc3ccc(-c4c(C)noc4C)cc23)cc1`, the ratio activity is -36.2% and the RFP activity turned out to be 23.4%. The half-maximal activity concentration (AC50) under setting [1] is 1.58 µM [falling, full curve].

Consider `COC(=O)Nc1nc(-c2ccccc2)c(C(=O)c2ccc(Cl)cc2)s1`, for which the ratio activity is -26.7% and the RFP activity is -33.3%. Also, the AC50 under setting [1] is 0.251 µM [falling, full curve, poor fit]. The AC50 under setting [2] is 6.31 µM [falling, full curve, poor fit].

Consider `Cc1noc(C)c1-c1ccc2ncnc(NCc3ccc4[nH]ccc4c3)c2c1`, for which the ratio activity is -26.4% and the RFP activity was 12.1%. For the same compound, the AC50 under setting [1] was 3.98 µM [falling, full curve].

Turning to `COc1ccc2cc3[n+](cc2c1OC)CCc1cc2c(cc1-3)OCO2`, the ratio activity was -20% and the RFP activity worked out at 5.25%.
